# “And” between values parts separate entries of the source, which are not always exact repeats. Equal values may be shown once. This list was built around the results that the source calls inconclusive (neither active nor inactive); the mix of calls is not that of the screen. For some assays here: Where the call is inconclusive, the potency comes from a doubtful curve fit. The source made the active and inactive calls. Unless noted, calls come from the whole dose curve; as a rule, active = well fitted curve in the direction sought with a large enough effect in the repeat runs; inconclusive = weak or mixed curves; inactive = no such curve, though single readings can be large; an effect the other way counts as inactive or inconclusive.
# Sequences of proteins named here, by UniProt entry; tags and fusion partners are left off. A change or cut given only in a name is not applied to a line headed by its entry.
# UniProt P11473: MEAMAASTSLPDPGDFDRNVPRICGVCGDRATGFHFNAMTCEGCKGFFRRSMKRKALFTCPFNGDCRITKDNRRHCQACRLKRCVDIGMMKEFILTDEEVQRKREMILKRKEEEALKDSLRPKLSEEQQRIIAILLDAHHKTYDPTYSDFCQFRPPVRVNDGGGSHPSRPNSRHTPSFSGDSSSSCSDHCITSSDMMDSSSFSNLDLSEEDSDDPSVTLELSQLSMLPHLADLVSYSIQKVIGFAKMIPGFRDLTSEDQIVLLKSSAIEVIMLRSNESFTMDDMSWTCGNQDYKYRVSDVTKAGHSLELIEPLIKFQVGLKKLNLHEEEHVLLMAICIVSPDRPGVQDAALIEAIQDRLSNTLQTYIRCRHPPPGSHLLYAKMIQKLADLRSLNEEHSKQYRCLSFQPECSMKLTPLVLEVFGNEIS
# UniProt Q96RI1: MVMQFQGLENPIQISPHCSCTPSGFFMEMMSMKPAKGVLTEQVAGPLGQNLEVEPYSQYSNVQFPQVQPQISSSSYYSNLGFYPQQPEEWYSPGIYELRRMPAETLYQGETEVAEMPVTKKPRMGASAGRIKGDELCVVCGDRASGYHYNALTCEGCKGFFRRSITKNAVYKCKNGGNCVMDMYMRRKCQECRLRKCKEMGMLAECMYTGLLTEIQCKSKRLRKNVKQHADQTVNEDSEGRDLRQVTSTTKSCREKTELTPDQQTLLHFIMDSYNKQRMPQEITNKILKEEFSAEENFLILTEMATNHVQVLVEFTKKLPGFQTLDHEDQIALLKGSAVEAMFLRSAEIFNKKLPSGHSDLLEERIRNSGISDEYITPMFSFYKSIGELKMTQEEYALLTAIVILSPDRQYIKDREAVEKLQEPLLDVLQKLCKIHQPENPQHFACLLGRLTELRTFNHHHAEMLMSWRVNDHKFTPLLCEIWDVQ
# UniProt Q03181: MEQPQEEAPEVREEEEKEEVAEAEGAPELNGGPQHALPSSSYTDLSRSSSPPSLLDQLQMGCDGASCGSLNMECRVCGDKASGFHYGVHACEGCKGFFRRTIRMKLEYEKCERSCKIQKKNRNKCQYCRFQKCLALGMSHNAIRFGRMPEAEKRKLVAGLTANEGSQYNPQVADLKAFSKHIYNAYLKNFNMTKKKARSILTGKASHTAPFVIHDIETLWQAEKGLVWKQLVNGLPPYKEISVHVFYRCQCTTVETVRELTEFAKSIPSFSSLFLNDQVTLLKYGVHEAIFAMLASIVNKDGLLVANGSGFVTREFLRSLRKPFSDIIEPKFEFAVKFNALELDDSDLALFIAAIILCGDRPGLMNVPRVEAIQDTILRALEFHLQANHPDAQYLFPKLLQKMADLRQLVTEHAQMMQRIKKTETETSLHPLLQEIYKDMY
# Key:
# [1] = biological target: Vitamin D3 receptor (Homo sapiens) (UniProt P11473); test: qHTS assay to identify small molecule antagonists of the vitamin D receptor (VDR) signaling pathway (AID 743223; active = well fitted inhibition curve with a large enough effect in the signal ratio in the repeat runs, not every such curve was filed as active; inconclusive = weak or mixed curves, or effect the other way; inactive = no such curve, though single readings can be large or run the other way; the % refers to the signal ratio; note: % is set by controls: 0 for no effect and ±100 for the full control effect); conditions: VDR-UAS-bla HEK293T, beta-lactamase FRET ratio, 16 h; activity change, negative = inhibition: at 61 µM (top of the series) unless noted
# Procedure, shortened: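 Cells carrying a VDR-driven beta-lactamase reporter (VDR-bla) were co-treated with compound and 3 nM final 1alpha,25-dihydroxyvitamin D3 for 16 h at 37C; reporter activity was measured as FRET substrate fluorescence after 2 h at room temperature.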
# [2] = qHTS assay to identify small molecule antagonists of the retinoid-related orphan receptor gamma (ROR-gamma) signaling pathway - cell viability counter screen (AID 1159520); note: nearly all actives have a fitted effect of over 50% in size; note: potency is the fitted concentration of half-maximal effect
# Procedure, shortened: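 Tet-on ROR gamma CHO cells (1,000/well) were plated 4 hr, given compounds in DMSO for 2 hr at 37 C, then induced with 1 uM final doxycycline for 16 hr. Viability was read as ATP by CellTiter-Glo luminescence after 30 min.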
# [3] = qHTS assay for small molecule agonists of the antioxidant response element (ARE) signaling pathway (AID 743202; active = well fitted activation curve with a large enough effect in the signal ratio in the repeat runs, not every such curve was filed as active; inconclusive = weak or mixed curves, or effect the other way; inactive = no such curve, though single readings can be large or run the other way; the % refers to the signal ratio; note: potency is the fitted concentration of half-maximal effect); conditions: HepG2 ARE-bla reporter, beta-lactamase FRET, 16 h
# Procedure, shortened: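 Read-out: LiveBLAzer B/G FRET substrate fluorescence after 2 h at room temperature, following 16 h compound treatment at 37 C of HepG2 cells carrying an ARE-driven beta-lactamase reporter.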
# [4] = qHTS assay to identify small molecule antagonists of the vitamin D receptor (VDR) signaling pathway - cell viability counter screen (AID 743225); conditions: VDR-bla HEK293T viability, CellTiter-Glo luminescence, 16 h; viability change, negative = cytotoxic: at 61 µM (top of the series) unless noted; note: nearly all actives have a fitted effect of over 50% in size; note: potency is the fitted concentration of half-maximal effect
# Procedure, shortened: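 HEK293T VDR-bla; cpd + 1a,25-(OH)2D3 3 nM final, 16 h 37C/5% CO2; B/G FRET substrate 2 h RT; then CellTiter-Glo 30 min RT, luminescence.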
# [5] = qHTS assay to identify small molecule agonists of the vitamin D receptor (VDR) signaling pathway - cell viability counter screen (AID 743224); conditions: VDR-bla HEK293T viability, CellTiter-Glo luminescence, 16 h; activity change, negative = cytotoxicity: at 62.6 µM (top of the series); note: potency is the fitted concentration of half-maximal effect; nearly all actives have a fitted effect of over 50% in size
# Procedure, shortened: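 VDR-bla cells were preincubated 4 h at 37C/5% CO2, then exposed to compounds for 16 h. After the 2 h room-temperature bla FRET read, CellTiter-Glo was added to the same wells and luminescence read after 30 min.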
# [6] = biological target: Nuclear receptor ROR-gamma (Homo sapiens) (UniProt P51449); test: qHTS assay to identify small molecule antagonists of the retinoid-related orphan receptor gamma (ROR-gamma) signaling pathway (AID 1159521;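 note: CHO cells with doxycycline inducible ROR-gamma driving an RORE luciferase reporter; top concentration of the series differs between compounds; % is set by controls: 0 for no effect and ±100 for the full control effect; nearly all actives have a fitted effect of over 50% in size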)
# Procedure, shortened: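 Cells were plated, rested 4 h at 37 C, exposed to compounds for 2 h, then given 1 uM final doxycycline hyclate to induce RORγ expression. After 16 h, ONE-Glo luminescence from the ROR response element reporter was measured.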
# [7] = biological target: Vitamin D3 receptor (Homo sapiens) (UniProt P11473); test: qHTS assay to identify small molecule agonists of the vitamin D receptor (VDR) signaling pathway (AID 743222; calls by dose curve; note: potency is the fitted concentration of half-maximal effect); conditions: HEK293T VDR-UAS-bla, beta-lactamase FRET ratio, 16 h; activation: at 63.5 µM (top of the series) unless noted
# Procedure, shortened: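 VDR-bla cells were plated 4 h at 37C/5% CO2, then exposed to compounds in DMSO for 16 h. After LiveBLAzer B/G FRET substrate addition and 2 h at room temperature, beta-lactamase reporter fluorescence was read.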
# [8] = biological target: Bile acid receptor (Homo sapiens) (UniProt Q96RI1); test: qHTS assay to identify small molecule antagonists of the farnesoid-X-receptor (FXR) signaling pathway (AID 743217; active = well fitted inhibition curve with a large enough effect in the signal ratio in the repeat runs, not every such curve was filed as active; inconclusive = weak or mixed curves, or effect the other way; inactive = no such curve, though single readings can be large or run the other way; the % refers to the signal ratio; note: % is set by controls: 0 for no effect and ±100 for the full control effect); conditions: HEK293T FXR-UAS-bla, beta-lactamase ratio, CDCA-stimulated, 16 h; activity change, negative = inhibition: at 62.6 µM (top of the series) unless noted
# Procedure, shortened: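 FXR-UAS-bla HEK 293T cells pre-incubated 5 h at 37 °C, then exposed to compounds with chenodeoxycholic acid (50 uM final) for 16 h at 37 °C. Beta-lactamase reporter read by LiveBLAzer B/G FRET substrate fluorescence after 2 h at room temperature.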
# [9] = qHTS assay for small molecule agonists of the antioxidant response element (ARE) signaling pathway - cell viability counter screen (AID 743203; calls by dose curve; note: potency is the fitted concentration of half-maximal effect; nearly all actives have a fitted effect of over 55% in size); conditions: ARE-bla HepG2 viability, CellTiter-Glo luminescence, 16 h; viability change, negative = cytotoxic: at 73.3 µM (top of the series)
# Procedure, shortened: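 CellSensor ARE-bla HepG2 cells, 2,000 per well, rested 5 hrs at 37C/5% CO2, then exposed to compound in DMSO for 16 hrs; viability read as CellTiter-Glo luminescence after 30 min at room temperature, in the reporter wells.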
# [10] = biological target: Bile acid receptor (Homo sapiens) (UniProt Q96RI1); test: qHTS assay to identify small molecule agonists of the farnesoid-X-receptor (FXR) signaling pathway (AID 743220; active = well fitted activation curve with a large enough effect in the signal ratio in the repeat runs, not every such curve was filed as active; inconclusive = weak or mixed curves, or effect the other way; the % refers to the signal ratio; note: potency is the fitted concentration of half-maximal effect); conditions: HEK293T FXR-UAS-bla, beta-lactamase FRET ratio, 16 h; activation: at 62.6 µM (top of the series)
# Procedure, shortened: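 Beta-lactamase reporter under UAS control in GeneBLAzer FXR HEK 293T cells (5000/well) measured with LiveBLAzer FRET substrate after 2 h at room temperature. Compound exposure lasted 16 h at 37C.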
# [11] = qHTS assay to identify small molecule agonists of the peroxisome proliferator-activated receptor delta (PPARd) signaling pathway - cell viability counter screen (AID 743211); conditions: PPARd-bla HEK293H viability, CellTiter-Glo luminescence, 17 h; activity change, negative = cytotoxicity: at 62.6 µM (top of the series); note: potency is the fitted concentration of half-maximal effect; nearly all actives have a fitted effect of over 55% in size
# Procedure, shortened: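 Counter screen for cytotoxicity run in parallel with the PPARd reporter screen. Beta-lactamase reporter HEK293H cells exposed to compounds 17 h; ATP-based CellTiter-Glo luminescence quantified viability.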
# [12] = qHTS assay to identify small molecule antagonists of the farnesoid-X-receptor (FXR) signaling pathway - cell viability counter screen (AID 743221; active = well fitted cell-killing curve with a large enough effect in the repeat runs, not every such curve was filed as active; inconclusive = weak or mixed curves, or effect the other way; inactive = no such curve, though single readings can be large or run the other way); conditions: FXR-bla HEK293T viability, CellTiter-Glo luminescence, 16 h; activity change, negative = cytotoxicity: at 62.6 µM (top of the series) unless noted
# Procedure, shortened: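 Multiplexed counter screen: viability of FXR-bla HEK 293T cells under agonist stimulation by chenodeoxycholic acid (50 uM, final) and test compound for 16 h at 37 C, measured by CellTiter-Glo luminescence in the reporter wells.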
# [13] = qHTS assay for small molecule activators of the heat shock response signaling pathway - cell viability counter screen (AID 743209); conditions: HSE-bla HeLa viability, CellTiter-Glo luminescence, 5 h; activity change, negative = cytotoxicity: at 62.6 µM (top of the series); note: nearly all actives have a fitted effect of over 50% in size; note: potency is the fitted concentration of half-maximal effect
# Procedure, shortened: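 CellSensor HSE-bla HeLa cells, plated overnight at 37 C/5% CO2, were exposed to compounds in DMSO for 5 h at 37 C. Viability was then read in the same wells by CellTiter-Glo luminescence after 30 min at room temperature.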
# [14] = qHTS assay to identify small molecule agonists of the farnesoid-X-receptor (FXR) signaling pathway - cell viability counter screen (AID 743218); conditions: FXR-bla HEK293T viability, CellTiter-Glo luminescence, 16 h; viability change, negative = cytotoxic: at 62.6 µM (top of the series) unless noted; note: potency is the fitted concentration of half-maximal effect; nearly all actives have a fitted effect of over 45% in size
# Procedure, shortened: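 FXR-UAS-bla HEK 293T cells, plated 5 h at 37 C, were exposed to compounds for 16 h at 37 C. CellTiter-Glo was then added to the same wells as the bla readout; luminescence read after 30 min at room temperature.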
# [15] = qHTS assay to identify small molecule agonists of the AP-1 signaling pathway (AID 1159526; calls by dose curve; note: % is set by controls: 0 for no effect and ±100 for the full control effect); conditions: ME-180 (cervical carcinoma) AP-1-bla reporter, beta-lactamase FRET ratio, 5 h; activation: at 76.8 µM (top of the series) unless noted
# [16] = qHTS assay to identify small molecule antagonists of the peroxisome proliferator-activated receptor delta (PPARd) signaling pathway - cell viability counter screen (AID 743213); conditions: PPARd-bla HEK293H viability, CellTiter-Glo luminescence, 17 h; viability change, negative = cytotoxic: at 62 µM (top of the series) unless noted
# Procedure, shortened: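 PPARd-bla HEK293H cells were treated with compounds plus agonist L165041 (300 nM final) for 17 h at 37 C. Viability was then read in the same wells by CellTiter-Glo luminescence after 30 min at room temperature.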
# [17] = biological target: Peroxisome proliferator-activated receptor delta (Homo sapiens) (UniProt Q03181); test: qHTS assay to identify small molecule antagonists of the peroxisome proliferator-activated receptor delta (PPARd) signaling pathway (AID 743215; active = well fitted inhibition curve with a large enough effect in the signal ratio in the repeat runs, not every such curve was filed as active; inconclusive = weak or mixed curves, or effect the other way; inactive = no such curve, though single readings can be large or run the other way; the % refers to the signal ratio;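 note: cells stimulated with agonist L165041 at 300 nM final during compound exposure; % is set by controls: 0 for no effect and ±100 for the full control effect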); conditions: HEK293H PPARd-UAS-bla, beta-lactamase FRET ratio, antagonist, 17 h; ratio activity, negative = inhibition: at 62 µM (top of the series) unless noted
# Procedure, shortened: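 PPARd UAS-bla HEK293H cells were pre-incubated 5 h at 37 C, then given test compounds in DMSO plus agonist L165041 (300 nM final). After 17 h at 37 C, beta-lactamase FRET substrate was added; fluorescence read after 2 h at room temperature.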
# [18] = activation: at 73.3 µM (top of the series) unless noted
structure (smiles),measurement,setting,value
CCC(C)(C)C1CCC(OC)CC1 (stereo not drawn),Potency,[1],inactive
same,Potency,[2],active: 48.6 µM
NC(=O)c1ncn([C@@H]2O[C@H](CO)[C@@H](O)[C@H]2O)c1N,Potency,[3]; [18],inactive
same,Potency,[1],inactive
same,Potency,[2],inactive
COc1ccc(NC(C)=O)cc1,Potency,[3]; [18],inactive
same,Potency,[4],inactive
same,Potency,[2],inactive
Cc1cccc(C)n1,Potency,[2],inactive
COC(=O)/C=C(\C)CCC=C(C)C,activation,[3]; [18],inconclusive: 19.2%
same,Potency,[5],"inconclusive: 24.5 µM [cytotoxic, partial curve, poor fit]"
same,Potency,[4],"inconclusive: 0.245 µM [cytotoxic, full curve, poor fit]"
same,Potency,[2],inactive
C[Si](C)O[Si](C)C,Potency,[6],inactive
CC1=CC(C)(C)Nc2ccccc21,activation,[3]; at 73.3 µM (top of the series),inactive: 0.165%
same,Potency,[7],inactive
CC(C)(C)[C@@H](O)[C@@H](Cc1ccc(Cl)cc1)n1cncn1,activation,[3]; at 73.3 µM (top of the series),inactive: 6.14%
same,Potency,[8],inactive
CN(C)C(=O)NC1(c2ccccc2)CCN(CCC[C@]2(c3ccc(Cl)c(Cl)c3)CCCN(C(=O)c3ccccc3)C2)CC1,Potency,[9],active: 14.6 µM
same,"activity change, negative = inhibition",[8],inconclusive: -30.2% [at 29.1 µM]
same,Potency,[10],"inconclusive: 13.1 µM [rising, partial curve, poor fit]"
Cc1ccccc1C(OCCN(C)C)c1ccccc1 (stereo not drawn),Potency,[11],"inconclusive: 49 µM [cytotoxic, partial curve] and inconclusive: 61.6 µM [cytotoxic, partial curve, poor fit] and inconclusive: 29.8 µM [cytotoxic, partial curve, poor fit]"
same,Potency,[12],"inconclusive: 33.5 µM [falling, partial curve, poor fit]"
CCN(CC)CCOC(=O)C(c1ccccc1)C1CCCCC1 (stereo not drawn),Potency,[11],"inconclusive: 23.7 µM [cytotoxic, partial curve]"
C[N+]1(CC2COC(c3ccccc3)(C3CCCCC3)O2)CCCCC1 (stereo not drawn),Potency,[7],"inconclusive: 4.22 µM [rising, partial curve, poor fit]"
C/C=C/C(=O)CC,"viability change, negative = cytotoxic",[4],inactive: 1.57% [at 15.1 µM]
CC(=O)N(O)CCCCCNC(=O)CCC(=O)N(O)CCCCCNC(=O)CCC(=O)N(O)CCCCCN,Potency,[3]; [18],"inconclusive: 1.06 µM [falling, full curve]"
same,Potency,[13],inactive
same,Potency,[14],"inconclusive: 0.0033 µM [rising, full curve, poor fit]"
same,Potency,[6],inactive
same,activation,[15],inconclusive: -30.9% [at 35.3 µM]
CC(C)c1cc2c(cc1S(=O)(=O)O)[C@@]1(C)CCC[C@@](C)(C(=O)O)[C@@H]1CC2,Potency,[3]; [18],inactive
same,Potency,[13],"inconclusive: 0.335 µM [cytotoxic, full curve, poor fit]"
same,Potency,[16],"inconclusive: 0.531 µM [rising, partial curve, poor fit]"
same,"ratio activity, negative = inhibition",[17],inconclusive: 3.62%
same,Potency,[4],"inconclusive: 26.8 µM [cytotoxic, single point]"
same,Potency,[6],inactive
same,Potency,[15],inactive

# 3 entries from above, bar-delimited.
structure (smiles) | measurement | setting | value
CC(C)(C)[C@@H](O)[C@@H](Cc1ccc(Cl)cc1)n1cncn1 | activation | [3]; at 73.3 µM (top of the series) | inactive: 6.14%
same | Potency | [8] | inactive
CN(C)C(=O)NC1(c2ccccc2)CCN(CCC[C@]2(c3ccc(Cl)c(Cl)c3)CCCN(C(=O)c3ccccc3)C2)CC1 | Potency | [9] | active: 14.6 µM

# Source: PubChem BioAssay (Tox21)
